From article PMC1609128

B1: V5-tagged N-terminal CTCFL (domain or fragment, UniProt A2APF3 1-229)
chain: MAAAEVPVPSGYFTQIKEQKLKPGDLEEEKEEDGVQRVEAQEGVVKEVEAENSCLLLEARAPVESDRRILTLQTVHLESQDVHLQGLGWLSVPHSEELSGTVPEAEGILQLPSVLWLDPEPQLSLQHCVTVSIPEELYPPEELQRIHFHLLRENVLMAEENPELTPDLDESTALKKPEEDEKDQLPPQGETDKREERLLLLEMKPKEGKDDEIVLTISHLSLEEQQDPP
B2: Myc-tagged CTCFL (full length) (protein, UniProt A2APF3 1-636)
chain: MAAAEVPVPSGYFTQIKEQKLKPGDLEEEKEEDGVQRVEAQEGVVKEVEAENSCLLLEARAPVESDRRILTLQTVHLESQDVHLQGLGWLSVPHSEELSGTVPEAEGILQLPSVLWLDPEPQLSLQHCVTVSIPEELYPPEELQRIHFHLLRENVLMAEENPELTPDLDESTALKKPEEDEKDQLPPQGETDKREERLLLLEMKPKEGKDDEIVLTISHLSLEEQQDPPAANQTSVPGAKAAKPKRRRQTKGKPQSFQCDTCPFTSSKLSTFNRHIKIHSNERPHLCHLCLKAFRTVTLLRNHVNTHTGTRPHKCRDCDMAFVTSGELVRHRRYKHTYEKPFKCSLCKYASVEASKMKRHIRSHTGERPFQCCQCAYASRDSYKLKRHMRTHSGEKPYECPTCHVRFTQSGTMKIHIAQKHGENVPKYECPHCATIIARKSDLRVHLRNLHSQSPEEMKCRYCPAGFHERYALIQHQRTHKNEKKFKCKQCDYACKQERCLKAHMRMHTGEKPFSCLACNKHFRQKQLLTVHLRKYHDPNFVPNLHLCLKCDKRFSRWSNLQRHRKKCDPEHETLAPNKDRRPVTRTQASEGEAGHKEGEPQCPGEQALGHQGEAAGSQSPDHGLTCEIIFNMMDK
B3: V5-tagged PRMT7 (enzyme, UniProt Q922X9 1-692)
chain: MKVFCGRANPTTGSLEWLEEDEHYDYHQEIARSSYADMLHDKDRNIKYYQGIRAAVSRVKDRGQKALVLDIGTGTGLLSMMAVTAGADFCYAIEVFKPMAEAAVKIVERNGFSDKIKVINKHSTEVTVGPDGDLPCRANILITELFDTELIGEGALPSYEHAHKHLVQEDCEAVPHRATVYAQLVESRRMWSWNKLFPVRVRTSLGEQVIVPPSELERCPGAPSVCDIQLNQVSPADFTVLSDVLPMFSVDFSKQVSSSAACHSRQFVPLASGQAQVVLSWWDIEMDPEGKIKCTMAPFWAQTDPQELQWRDHWMQCVYFLPQEEPVVQGSPRCLVAHHDDYCVWYSLQRTSPDENDSAYQVRPVCDCQAHLLWNRPRFGEINDQDRTDHYAQALRTVLLPGSVCLCVSDGSLLSMLAHHLGAEQVFTVESSVASYRLMKRIFKVNHLEDKISVINKRPELLTAADLEGKKVSLLLGEPFFTTSLLPWHNLYFWYVRTSVDQHLAPGAVVMPQAASLHAVIVEFRDLWRIRSPCGDCEGFDVHIMDDMIKHSLDFRESREAEPHPLWEYPCRSLSKPQEILTFDFQQPIPQQPMQSKGTMELTRPGKSHGAVLWMEYQLTPDSTISTGLINPAEDKGDCCWNPHCKQAVYFLSTTLDLRVPLNGPRSVSYVVEFHPLTGDITMEFRLADTLS

Columns and labels:
GST fusion histone H1 = assay: pull-down; bacterially produced GST histone fusion proteins on glutathione-sepharose beads reacted with lysates of transfected 293T cells; beads washed 4 times in lysis buffer; Western blot; only the target purified
GST fusion histone H2A = assay: as above
[1] = target: histone H1 (on the Farwestern blot of histones); assay: far-Western, overlay or dot blot; Western blots with 1 μg and 0.25 μg histones reacted with lysates of transfected 293T cells expressing myc-tagged CTCFL; detected by α-Myc and α-CTCFL antibodies; only the target purified

Row | Binder | binding (GST fusion histone H1) | binding (GST fusion histone H2A) | binding [1]
1 | B1 | binds | binds | 
2 | B2 | binds | binds | binds
3 | B3 | no binding | no binding | 

These are yes or no findings as the source states them, for the method shown. Binding can be weak; no strength is given. Tags and fused reporters may be left off the sequences shown. For some of these results: In cells and extracts the contact can be indirect.
